Assay results from the supplement of paper PMC11732987, “Enantioselective OTUD7B fragment discovery through chemoproteomics screening and high-throughput optimisation” (Communications Chemistry, 2025).
The other results are listed elsewhere or left out. The data scatter; read single values as rough.

Protein sequences, listed by entry. Tags and fused reporters are not part of them. Lines headed by an entry give the natural chain unless they say otherwise; changes in a name come on top. Residues count along the entry.
UniProt Q9NV96, 2-24: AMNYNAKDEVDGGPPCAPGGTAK
UniProt O94826: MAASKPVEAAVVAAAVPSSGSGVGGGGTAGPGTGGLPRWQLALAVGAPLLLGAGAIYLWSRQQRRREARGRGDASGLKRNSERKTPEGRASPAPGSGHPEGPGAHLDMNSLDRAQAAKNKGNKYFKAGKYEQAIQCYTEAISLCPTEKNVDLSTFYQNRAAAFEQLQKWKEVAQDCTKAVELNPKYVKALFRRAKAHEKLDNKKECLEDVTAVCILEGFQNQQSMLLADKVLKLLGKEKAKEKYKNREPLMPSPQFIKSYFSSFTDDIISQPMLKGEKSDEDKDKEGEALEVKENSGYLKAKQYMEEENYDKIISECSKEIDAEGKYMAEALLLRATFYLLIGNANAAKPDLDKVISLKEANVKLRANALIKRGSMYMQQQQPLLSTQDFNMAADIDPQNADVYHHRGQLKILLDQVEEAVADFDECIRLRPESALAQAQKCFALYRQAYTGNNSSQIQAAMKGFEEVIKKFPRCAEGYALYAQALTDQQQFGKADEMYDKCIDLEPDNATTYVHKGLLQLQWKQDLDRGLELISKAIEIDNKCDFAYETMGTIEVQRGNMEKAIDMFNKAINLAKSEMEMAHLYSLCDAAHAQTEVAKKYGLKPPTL
UniProt Q7Z392, 805-839: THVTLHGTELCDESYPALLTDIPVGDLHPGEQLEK
UniProt O15164, 872-891: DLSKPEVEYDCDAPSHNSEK
UniProt Q9UNS1: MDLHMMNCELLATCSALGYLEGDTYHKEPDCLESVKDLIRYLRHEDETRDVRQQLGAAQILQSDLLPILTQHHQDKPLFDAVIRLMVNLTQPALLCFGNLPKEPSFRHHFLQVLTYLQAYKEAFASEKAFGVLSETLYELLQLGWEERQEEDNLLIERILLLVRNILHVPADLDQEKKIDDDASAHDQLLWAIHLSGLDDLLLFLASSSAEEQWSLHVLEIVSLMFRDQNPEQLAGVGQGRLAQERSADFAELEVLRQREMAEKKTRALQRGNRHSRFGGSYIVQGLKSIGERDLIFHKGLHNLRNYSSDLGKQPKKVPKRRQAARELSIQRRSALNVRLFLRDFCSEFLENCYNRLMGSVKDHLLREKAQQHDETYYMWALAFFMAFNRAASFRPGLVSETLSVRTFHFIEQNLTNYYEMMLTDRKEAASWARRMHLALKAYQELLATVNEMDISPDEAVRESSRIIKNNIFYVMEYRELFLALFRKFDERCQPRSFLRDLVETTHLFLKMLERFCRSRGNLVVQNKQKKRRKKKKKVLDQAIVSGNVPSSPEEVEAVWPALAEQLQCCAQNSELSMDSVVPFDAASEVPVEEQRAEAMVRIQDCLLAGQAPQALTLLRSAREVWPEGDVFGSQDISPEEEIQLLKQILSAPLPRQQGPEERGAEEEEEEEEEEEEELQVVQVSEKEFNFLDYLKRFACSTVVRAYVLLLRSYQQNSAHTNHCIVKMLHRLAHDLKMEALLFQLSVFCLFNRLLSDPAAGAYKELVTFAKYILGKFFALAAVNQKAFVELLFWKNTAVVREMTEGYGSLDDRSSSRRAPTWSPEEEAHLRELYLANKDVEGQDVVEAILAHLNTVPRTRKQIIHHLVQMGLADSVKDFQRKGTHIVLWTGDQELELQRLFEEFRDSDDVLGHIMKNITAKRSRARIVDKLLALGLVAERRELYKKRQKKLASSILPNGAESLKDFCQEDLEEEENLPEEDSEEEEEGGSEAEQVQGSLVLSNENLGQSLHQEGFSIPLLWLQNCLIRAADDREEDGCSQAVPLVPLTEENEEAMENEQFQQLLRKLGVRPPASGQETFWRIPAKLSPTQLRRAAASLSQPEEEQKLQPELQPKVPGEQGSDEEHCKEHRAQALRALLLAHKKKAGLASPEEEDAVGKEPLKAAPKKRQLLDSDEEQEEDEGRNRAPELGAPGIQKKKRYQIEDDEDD
UniProt P51580: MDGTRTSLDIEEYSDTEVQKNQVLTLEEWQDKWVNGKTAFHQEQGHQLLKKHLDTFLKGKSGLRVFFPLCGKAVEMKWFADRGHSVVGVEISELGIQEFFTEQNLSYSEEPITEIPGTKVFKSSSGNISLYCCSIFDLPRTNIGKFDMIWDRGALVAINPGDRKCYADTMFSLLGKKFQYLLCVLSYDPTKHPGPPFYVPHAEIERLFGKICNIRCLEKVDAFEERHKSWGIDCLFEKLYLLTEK
UniProt Q14669: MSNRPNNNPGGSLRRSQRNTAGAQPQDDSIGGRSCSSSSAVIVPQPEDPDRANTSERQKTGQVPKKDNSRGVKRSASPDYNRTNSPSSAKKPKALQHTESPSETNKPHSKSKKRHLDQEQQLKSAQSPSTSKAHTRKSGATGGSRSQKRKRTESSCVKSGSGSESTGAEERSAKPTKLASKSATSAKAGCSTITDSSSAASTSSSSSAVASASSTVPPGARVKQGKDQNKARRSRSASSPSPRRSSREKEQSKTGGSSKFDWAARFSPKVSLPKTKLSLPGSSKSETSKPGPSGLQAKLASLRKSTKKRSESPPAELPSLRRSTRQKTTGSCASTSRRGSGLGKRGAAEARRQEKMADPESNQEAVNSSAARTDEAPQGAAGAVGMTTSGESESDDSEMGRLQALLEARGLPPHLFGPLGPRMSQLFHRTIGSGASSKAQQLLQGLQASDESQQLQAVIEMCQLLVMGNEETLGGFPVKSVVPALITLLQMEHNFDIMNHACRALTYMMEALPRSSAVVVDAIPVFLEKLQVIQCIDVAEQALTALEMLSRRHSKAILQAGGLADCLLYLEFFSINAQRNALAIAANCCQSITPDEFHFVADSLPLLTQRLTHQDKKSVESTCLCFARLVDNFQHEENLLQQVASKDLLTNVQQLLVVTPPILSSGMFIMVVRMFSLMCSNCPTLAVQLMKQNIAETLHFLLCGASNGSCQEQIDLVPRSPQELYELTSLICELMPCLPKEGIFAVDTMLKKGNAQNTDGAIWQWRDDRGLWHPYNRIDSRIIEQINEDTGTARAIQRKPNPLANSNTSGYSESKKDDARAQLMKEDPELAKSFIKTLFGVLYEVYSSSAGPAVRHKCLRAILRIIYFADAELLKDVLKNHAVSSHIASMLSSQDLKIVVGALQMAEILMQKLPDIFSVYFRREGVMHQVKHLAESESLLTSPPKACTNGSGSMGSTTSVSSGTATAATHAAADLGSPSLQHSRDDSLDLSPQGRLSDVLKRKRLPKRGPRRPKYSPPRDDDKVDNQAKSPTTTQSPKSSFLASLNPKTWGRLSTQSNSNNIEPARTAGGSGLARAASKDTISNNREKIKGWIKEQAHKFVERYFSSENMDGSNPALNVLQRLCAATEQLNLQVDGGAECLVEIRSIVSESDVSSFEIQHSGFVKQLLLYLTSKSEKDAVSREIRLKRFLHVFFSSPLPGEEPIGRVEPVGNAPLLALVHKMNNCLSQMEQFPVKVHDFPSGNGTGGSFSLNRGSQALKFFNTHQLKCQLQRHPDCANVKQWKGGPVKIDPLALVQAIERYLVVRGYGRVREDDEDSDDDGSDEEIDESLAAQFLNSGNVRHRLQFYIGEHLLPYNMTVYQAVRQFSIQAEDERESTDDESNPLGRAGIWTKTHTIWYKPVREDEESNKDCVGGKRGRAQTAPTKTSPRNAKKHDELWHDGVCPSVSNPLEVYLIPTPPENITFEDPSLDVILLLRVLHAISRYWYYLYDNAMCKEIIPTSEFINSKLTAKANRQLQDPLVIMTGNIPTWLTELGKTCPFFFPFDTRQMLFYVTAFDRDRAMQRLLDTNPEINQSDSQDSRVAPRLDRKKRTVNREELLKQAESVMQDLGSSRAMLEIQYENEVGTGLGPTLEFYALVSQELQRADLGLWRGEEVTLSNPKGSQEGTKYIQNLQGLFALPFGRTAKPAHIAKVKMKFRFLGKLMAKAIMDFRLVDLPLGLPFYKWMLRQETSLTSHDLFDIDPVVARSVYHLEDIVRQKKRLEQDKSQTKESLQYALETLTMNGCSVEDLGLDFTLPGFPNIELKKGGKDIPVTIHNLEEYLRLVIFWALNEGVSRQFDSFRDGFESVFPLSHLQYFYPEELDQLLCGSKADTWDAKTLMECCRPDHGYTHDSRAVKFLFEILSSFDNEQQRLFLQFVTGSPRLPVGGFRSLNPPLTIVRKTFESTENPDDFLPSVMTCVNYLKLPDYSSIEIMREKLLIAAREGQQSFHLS
UniProt Q4ZIN3: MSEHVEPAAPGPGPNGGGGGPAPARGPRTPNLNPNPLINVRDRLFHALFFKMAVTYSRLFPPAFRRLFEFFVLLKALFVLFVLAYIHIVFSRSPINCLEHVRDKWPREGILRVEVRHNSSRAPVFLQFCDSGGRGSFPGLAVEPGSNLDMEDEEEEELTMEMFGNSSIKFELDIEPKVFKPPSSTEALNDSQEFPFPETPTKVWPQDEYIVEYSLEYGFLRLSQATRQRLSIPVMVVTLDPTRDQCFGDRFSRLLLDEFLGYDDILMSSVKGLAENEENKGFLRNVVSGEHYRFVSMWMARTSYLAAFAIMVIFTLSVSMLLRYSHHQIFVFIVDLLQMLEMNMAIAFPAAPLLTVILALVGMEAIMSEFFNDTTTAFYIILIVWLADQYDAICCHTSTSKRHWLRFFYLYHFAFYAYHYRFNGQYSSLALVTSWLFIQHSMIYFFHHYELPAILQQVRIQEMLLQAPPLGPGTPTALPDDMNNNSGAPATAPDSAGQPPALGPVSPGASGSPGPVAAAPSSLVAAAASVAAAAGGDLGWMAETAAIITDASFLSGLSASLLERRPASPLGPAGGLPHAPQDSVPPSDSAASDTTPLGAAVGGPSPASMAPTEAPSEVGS
UniProt Q12888, 89-116: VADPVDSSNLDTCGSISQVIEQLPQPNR
UniProt Q9Y5J9: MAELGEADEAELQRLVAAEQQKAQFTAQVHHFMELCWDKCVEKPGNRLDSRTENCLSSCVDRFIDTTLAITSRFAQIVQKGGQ
UniProt Q9C0C2: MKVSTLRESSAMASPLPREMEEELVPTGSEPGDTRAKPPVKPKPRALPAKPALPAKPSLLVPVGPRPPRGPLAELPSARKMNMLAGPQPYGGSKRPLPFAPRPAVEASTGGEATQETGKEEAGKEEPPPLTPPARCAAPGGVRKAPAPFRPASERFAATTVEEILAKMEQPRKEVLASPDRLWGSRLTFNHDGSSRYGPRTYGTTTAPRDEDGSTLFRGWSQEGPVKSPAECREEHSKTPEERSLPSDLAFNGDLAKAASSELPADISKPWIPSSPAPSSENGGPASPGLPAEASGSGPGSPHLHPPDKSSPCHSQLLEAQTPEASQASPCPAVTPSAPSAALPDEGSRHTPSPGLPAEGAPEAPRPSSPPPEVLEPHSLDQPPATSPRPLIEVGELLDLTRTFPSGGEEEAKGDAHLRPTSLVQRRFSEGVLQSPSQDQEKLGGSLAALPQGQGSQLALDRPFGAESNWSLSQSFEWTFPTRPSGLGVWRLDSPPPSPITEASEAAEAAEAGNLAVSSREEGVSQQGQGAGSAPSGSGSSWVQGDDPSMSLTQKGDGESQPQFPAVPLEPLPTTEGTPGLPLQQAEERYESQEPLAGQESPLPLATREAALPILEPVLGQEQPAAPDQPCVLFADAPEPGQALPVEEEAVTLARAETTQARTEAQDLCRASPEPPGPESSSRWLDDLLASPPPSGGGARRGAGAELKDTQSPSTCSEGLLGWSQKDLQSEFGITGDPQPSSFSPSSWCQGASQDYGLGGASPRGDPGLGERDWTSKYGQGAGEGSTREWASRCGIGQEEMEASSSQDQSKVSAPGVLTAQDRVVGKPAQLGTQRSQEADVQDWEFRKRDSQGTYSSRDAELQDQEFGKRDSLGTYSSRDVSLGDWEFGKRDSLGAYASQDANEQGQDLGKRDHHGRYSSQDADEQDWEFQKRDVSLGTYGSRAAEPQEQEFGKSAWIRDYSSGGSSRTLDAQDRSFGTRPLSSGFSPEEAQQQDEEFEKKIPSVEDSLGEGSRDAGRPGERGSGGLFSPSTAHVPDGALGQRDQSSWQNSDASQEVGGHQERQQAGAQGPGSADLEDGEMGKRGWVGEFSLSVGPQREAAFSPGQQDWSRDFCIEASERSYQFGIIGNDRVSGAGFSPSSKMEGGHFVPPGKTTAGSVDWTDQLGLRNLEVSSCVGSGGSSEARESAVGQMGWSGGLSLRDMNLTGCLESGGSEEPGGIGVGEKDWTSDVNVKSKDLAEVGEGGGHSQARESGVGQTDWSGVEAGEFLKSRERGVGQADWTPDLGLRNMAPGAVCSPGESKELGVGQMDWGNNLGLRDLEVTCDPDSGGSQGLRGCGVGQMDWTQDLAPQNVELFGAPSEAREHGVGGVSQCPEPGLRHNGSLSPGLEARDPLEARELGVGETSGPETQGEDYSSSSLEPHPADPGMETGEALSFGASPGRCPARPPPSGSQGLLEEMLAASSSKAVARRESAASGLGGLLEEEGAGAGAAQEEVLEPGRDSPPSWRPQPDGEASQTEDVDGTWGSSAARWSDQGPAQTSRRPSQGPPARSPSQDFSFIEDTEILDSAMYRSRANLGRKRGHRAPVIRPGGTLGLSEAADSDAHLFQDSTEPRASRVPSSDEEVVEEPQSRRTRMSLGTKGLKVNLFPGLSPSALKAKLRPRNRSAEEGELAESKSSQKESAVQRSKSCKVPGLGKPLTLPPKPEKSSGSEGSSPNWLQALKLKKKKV

Key:
[1] = compound: ClCC(=O)N[C@@H]1CCCc2ccccc12; test: log2 mean competition ratio of IA-DTB cysteine labelling (DMSO/compound) (log2 ratio); higher = stronger cysteine engagement by compound; conditions: treatment time: 4 h, cell line lysate: HEK293T
Experimental: (§1)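 IA-DTB competitive cysteine chemoproteomics in HEK293T RIPA lysate. Lysates were treated with compound 29 or 30 at 50 or 200 µM for 4 h, then IA-DTB (500 µM, 1 h), trypsin-digested, NeutrAvidin-enriched and analysed by diaPASEF. Competition ratio = intensity DMSO / intensity compound (n=4 treated, n=64 DMSO); binding: mean log2 CR ≥ 1 and p ≤ 0.05 plus QC filters. Target is the cysteine site.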

[2] = compound: ClCC(=O)N[C@H]1CCCc2ccccc12; test: as above; conditions: treatment time: 4 h, cell line lysate: HEK293T
Experimental: as §1

Target	log2 mean competition ratio ([1]; 50 µM)	log2 mean competition ratio ([1]; 200 µM)	log2 mean competition ratio ([2]; 50 µM)	log2 mean competition ratio ([2]; 200 µM)
TMEM30A C17 (UniProt Q9NV96)	-0.0427	-0.0876		
TMEM39B C67	0.509	0.0703		
TOMM70 C502 (UniProt O94826)	-0.266	-0.164	-0.682	-0.169
TMEM129 C121	0.372	-0.134	0.401	-0.162
TRAFD1 C267 (UniProt O14545)	-0.0369	0.118	0.0426	0.0147
TMPO C330	-0.123	-0.141	0.343	0.146
TNK2 C843 (UniProt Q07912)	0.0341	0.0976	-0.142	0.285
TRAPPC11 C658 (UniProt Q7Z392)	-0.274	-0.36	0.267	-0.204
TLN1 C116 (UniProt Q9Y490)	0.0246	-0.623	-0.07	-0.419
TRIM24 C882 (UniProt O15164)	-0.259	-0.068	-0.048	-0.276
TRIM38 C133 (UniProt O00635)	-0.216	0.136	-0.27	-0.00106
TP53 C141	-0.194	-0.183	0.464	-0.00218
TOPBP1 C238 (UniProt Q92547)	0.232	0.0469	-0.74	-0.111
TRIM33 C943	-0.0469	-0.067	-0.125	-0.219
TIMELESS C700 (UniProt Q9UNS1)	0.274	-0.00945	0.247	-0.39
TRIP11 C726 (UniProt Q15643)	-0.0308	-0.0492	-0.216	-0.297
TMEM131L C1241	0.254	0.424	-0.513	0.14
TK1 C79	-0.0384	-0.197	-0.0903	0.117
TPP2 C787	0.117	-0.325	-0.546	-0.384
TNPO3 C312 (UniProt Q9Y5L0)	-0.37	0.0862	0.0334	-0.0486
TOP1 C733 (UniProt P11387)	0.323	0.0448	0.176	-0.00772
TOP1 C386 (UniProt P11387)	-0.233	-0.0382	0.0118	0.609

Some entries already given, showing only log2 mean competition ratio ([1]; 200 µM) and log2 mean competition ratio ([1]; 50 µM):
Target | log2 mean competition ratio ([1]; 200 µM) | log2 mean competition ratio ([1]; 50 µM)
TRIM38 C133 (UniProt O00635) | 0.136 | -0.216
TP53 C141 | -0.183 | -0.194

Next part:

Target	log2 mean competition ratio ([1]; 50 µM)	log2 mean competition ratio ([1]; 200 µM)	log2 mean competition ratio ([2]; 50 µM)	log2 mean competition ratio ([2]; 200 µM)
TRIR C165 (UniProt Q9BQ61)	-0.0172	-0.0557	0.277	-0.0508
TNPO1 C620 (UniProt Q92973)	-0.0337	-0.136	0.327	-0.0762
TPR C1127 (UniProt P12270)	-0.118	-0.325	0.235	-0.0938
TPMT C70 (UniProt P51580)	-0.0236	-0.245	0.255	-0.0184
TRIP12 C156 (UniProt Q14669)	0.0608	0.0207	0.12	0.0332
TMPO C518	-0.265	0.219	0.464	0.364
TMED5 C47 (UniProt Q9Y3A6)	0.0522	-0.305	-0.0283	-0.239
TRAPPC13 C327 (UniProt A5PLN9)	0.0938	-0.14	-0.27	0.348
TMEM259 C97 (UniProt Q4ZIN3)	0.338	-0.177	0.401	-0.236
TOPBP1 C1200 (UniProt Q92547)	-0.3	0.152	0.0805	0.249
TP53BP1 C101 (UniProt Q12888)	-0.403	0.0506	-0.435	-0.181
TIMM8B C40 (UniProt Q9Y5J9)	-0.0205	0.128	0.541	0.0533
TPP2 C342	0.0361	-0.136	-0.114	-0.132
TMEM214 C655 (UniProt Q6NUQ4)	0.0233	-0.139	0.107	0.0303
TRAPPC11 C815 (UniProt Q7Z392)	0.0153	0.206	0.155	-0.371
TPX2 C594 (UniProt Q9ULW0)	-0.0555	-0.131	0.125	0.101
TRAFD1 C83 (UniProt O14545)	-0.116	0.552	0.116	-0.0536
TMA16 C75 (UniProt Q96EY4)	-0.0611	-0.0294	0.0115	0.109
TP53BP1 C489 (UniProt Q12888)	-0.0196	-0.0881	0.138	0.0144
TRIM9 C356	-0.156	-0.193	-0.0426	-0.25
TNKS1BP1 C1296 (UniProt Q9C0C2)	0.136	-0.136	0.335	0.031
